Measured values reported in patent publication US9133182B2, “Selective androgen receptor modulators” (Radius Health, Inc., priority 2010, dated 2015).
At least one structure is not confirmed: it was looked up by name or label, or the drawing left a doubt.

The chains behind the UniProt entries cited, without tags or fusion partners. Residues count along the entry.
UniProt P15207, 651-902: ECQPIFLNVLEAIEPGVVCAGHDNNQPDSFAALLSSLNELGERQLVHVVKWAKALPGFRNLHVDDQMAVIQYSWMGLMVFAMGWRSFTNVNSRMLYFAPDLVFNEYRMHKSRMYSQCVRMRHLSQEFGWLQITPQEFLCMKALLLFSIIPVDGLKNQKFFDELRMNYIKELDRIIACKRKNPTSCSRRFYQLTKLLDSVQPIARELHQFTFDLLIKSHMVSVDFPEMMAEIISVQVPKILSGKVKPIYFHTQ

Molecular target: androgen receptor (Rattus norvegicus (Rat), UniProt P15207)
Test: androgen receptor binding assay (fluorescence polarization, Invitrogen)
Details: comparison of diastereomers / general statement
Experimental: The assay was performed as specified by the manufacturer (Invitrogen, Madison, Wis.). Briefly, 1 μl of 10 mM compound was added to 500 μl of AR screening buffer in a 1.5 ml eppendorf tube to make a 2×10^−5M stock. 10-fold serial dilutions of the test compounds were prepared ranging in concentration from 10^−5M to 10^−12M. Each dilution was added in triplicate to a black 384-microtiter plate. The test compounds will be diluted 2-fold in the final reaction. 2×AR-Fluormone™ complex was prepared with 2 nM Flourmone AL Green™ and 30 nM AR. 25 μl of 2×complex was aliquoted to each reaction well, such that the final reaction volume was 50 μl per well. Plate was sealed with a foil cover and incubated in the dark at room temperature for 4 h. Polarization values for each well were measured. The polarization values were plotted against the concentration of the test compound. […] As a control, a competition curve for R1881 (methyltrienolone) was performed for each assay.

SMILES: C[C@@H]1OC(=O)N(c2ccc(C#N)c(C(F)(F)F)c2)[C@H]1[C@@H](O)C(F)(F)F [Example 20, 4-((4S,5S)-5-methyl-2-oxo-4-((R)-2,2,2-trifluoro-1-hydroxyethyl)oxazolidin-3-yl)-2-(trifluoromethyl)benzonitrile]
- androgen receptor binding affinity (in words): lower androgen receptor binding affinity than Example 19
